Source: US20120237937A1, “METHODS TO DETECT CANCER IN ANIMALS” (UNIVERSITY OF LOUISVILLE RESEARCH FOUNDATION, INC., priority 2009, published 2012)
Some of these results come from one statement about several compounds together. At least one structure is not confirmed: it was looked up by name or label, or the drawing left a doubt.

Assay: NMR 13C-isotopomer profiling of TCA extracts of paired non-cancerous and cancerous lung tissues
Conditions: multiply labeled species, lung tumor tissue of patient #6, 1H TOCSY
Procedure: Lung cancer patients were recruited based on the criteria of surgical eligibility and no history of diabetes. Each patient was consented in accordance with the U.S. HIPAA regulations. The following patient protocol was approved by the Internal Review Board at the University of Louisville. Ten grams uniformly ^13C labeled glucose ([U-^13C]-Glc or ^13C6-Glc or ^13C6-Glucose) in sterile saline solution were infused i.v. over a 30 min time period into each patient in the pre-op room approximately 3 or 12 hr prior to resection. Whole blood samples were collected into a vacutainer containing the anticoagulant K3EDTA or K3-EDTA before and after [U-^13C]-Glc infusion as well as after the surgery. Additional blood samples were collected 3 and 12 hr after the [U-^13C]-Glc infusion for the 12 hr treatment cases. […] The blood samples were placed on ice immediately after collection and centrifuged at 4° C. at 3,500×g for 15 min to recover the plasma fraction. […]
All timings from first incision to cutting arteries and veins to the lung were recorded so that the period of ischemia could be determined immediately after tissue resection, excess blood was blotted from the tissue, and small pieces of non-cancerous and tumor tissue were cut by the surgeon and freeze-clamped in liquid N2 within 5 minutes of removal from the chest cavity. […]

For CC(O)C(=O)O (stereo not shown) [lactate], which “enrichment over the natural abundance levels” value is on record?
The value was 200-300 fold.
